# Measurements as given in patent US20200173986A1.
# The chains behind the UniProt entries cited, without tags or fusion partners. Where a name states a change or a piece, a line headed by the entry shows the natural chain unless it says otherwise. Residues count along the entry.
# UniProt P60880, 1-197: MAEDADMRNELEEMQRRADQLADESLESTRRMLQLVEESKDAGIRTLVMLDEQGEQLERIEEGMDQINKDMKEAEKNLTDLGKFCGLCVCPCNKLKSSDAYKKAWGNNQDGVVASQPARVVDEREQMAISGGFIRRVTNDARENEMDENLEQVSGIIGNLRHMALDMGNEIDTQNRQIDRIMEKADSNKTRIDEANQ
# UniProt P60880, whole entry: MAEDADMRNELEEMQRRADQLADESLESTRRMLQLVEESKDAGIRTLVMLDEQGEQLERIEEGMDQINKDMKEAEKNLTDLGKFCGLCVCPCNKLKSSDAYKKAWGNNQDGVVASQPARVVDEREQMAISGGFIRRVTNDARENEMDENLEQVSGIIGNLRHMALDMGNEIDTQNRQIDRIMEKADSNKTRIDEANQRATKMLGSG
# UniProt P60879, 1-197: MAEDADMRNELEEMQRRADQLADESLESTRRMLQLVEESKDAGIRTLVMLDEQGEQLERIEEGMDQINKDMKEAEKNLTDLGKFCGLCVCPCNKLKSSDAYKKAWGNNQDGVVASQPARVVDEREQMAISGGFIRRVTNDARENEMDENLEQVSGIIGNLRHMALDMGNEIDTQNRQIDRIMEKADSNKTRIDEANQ
# Numbering of substitutions follows the chain as printed. These are yes or no findings as the source states them, for the method shown. Some results given as binding are weak or reduced against the parent protein; the word gives no strength.
# B1: D2 IgG (antibody, V domains shown)
# VH: DVKLQESGPGLVKPSQSLSLTCSVTGYSITSGYYWNWIRQFPGNKLEWMGYIRYDGSNNYNPSLKNRISITRDTSKNQFFLKLNSVTTEDTASYYCARDRDSSYYFDYWGQGTALTVSS
# VL: DIVMTQSSSYLSVSLGGRVTITCKASDHINNWLAWYQQKPGNAPRLLISDTTSLETGVPSRFSGSGSGKDYTLSITSLQTEDVATYYCQQYWSAPPTFGGGTKLEIK
# B2: C16 IgG (antibody, V domains shown)
# VH: EVQLQQSGAELARPGASVQMSCKAFGYTFTNYTMHWVRQRPGQGLEWIGFINPSSDYTNYNQKFKDKATLSADKSSSTAYMQLSSLTSEDSAVYYCARRIFYNGRTYAAMDYWGQGTSVTVSS
# VL: DIVMTQSPASLAVSLGQRATISCRASKSVSSSGYSYMHWYQQKPGQPPKLLIYLASNLESGVPARFSGSGSGTDFTLNIHPVEEEDAATYYCQHSRELPLTFGAGTKLELK
# B3: C24 IgG (antibody, V domains shown)
# VH: EVKLVESGGGLVQPKGSLKLSCAASGYTFNTYAMNWVRQAPGKGLEWVARIRSKSNNYTTYYADSVKDRFTISRDDSQSMLYLQINNLKTEDTAMYYCVGQILYYYVGSPAWFAYWGQGTLVTVSA
# VL: B2 VL with S31T, Y53F, L100W, A104G, L110I
# B4: C4 IgG (antibody, V domains shown)
# VH: DVKLQESGPGLVKPSQSLSLTCTVTGYSITSDYAWNWIRQFPGNKLEWMGYISYSVGTRYNPSLKSRISITRDTSKNQFFLLLKSVTNEDTATYFCARKGEYGFAYWGQGTLVTVSA
# VL: B2 VL with S31T
# B5: C7 IgG (antibody, V domains shown)
# VH: QVQLVETGGGLVQPKGSLKLSCAASGFTFNTNAMNWVRQAPGKGLEWVARIRSKSNNYATYYADSVKDRFTISRDDSQSLLYLQMNNLKTEDTAMYYCVYGRSYGGLSYWGQGTLVTVSA
# VL: B2 VL
# B6: C14 IgG (antibody, V domains shown)
# VH: B5 VH with Q1E, Q3K, T7S, N56D, Q78P, L80M, S108G
# VL: B2 VL with M4L, S31T, M37V
# B7: C16 IgG-HRP conjugate (antibody, V domains shown)
# VH: B2 VH
# VL: B2 VL
# Molecular target: recombinant GST-SNAP25FL (UniProt P60880)
# Assay: Western blot, hybridoma culture supernatant 1:100 on 0.5 ug GST-SNAP25FL
row,Binder,binding
1,B1,binds

# Molecular target: recombinant GST-SNAP25197 (UniProt P60880)
# Assay: Western blot, hybridoma culture supernatant 1:100 on 0.5 ug GST-SNAP25197
row,Binder,binding
1,B2,binds
2,B3,binds
3,B4,binds
4,B5,binds
5,B6,binds

# Molecular target: endogenous SNAP25197 in total cell lysate of BoNT/A-treated N2-42F cells (mouse) (UniProt P60879)
# Assay: sandwich ELISA of N2-42F lysates, B4 IgG as capture, C16 IgG-HRP as detection
row,Binder,binding
1,B7,binds

# Molecular target: recombinant GST-SNAP25197 (UniProt P60880)
# Assay: BLI (Octet Red96), raw curves; example: anti-GST biosensor loaded with GST-SNAP25197, serially diluted IgG as analyte; the legend says IgG on AMC biosensors
row,Binder,binding
1,B2,binds
2,B3,binds
3,B4,binds
4,B5,binds

# Molecular target: recombinant GST-SNAP25197 (UniProt P60880)
# Assay: BLI (Octet Red96), aligned curves; example: anti-GST biosensor loaded with GST-SNAP25197, serially diluted IgG as analyte; the legend says IgG on AMC biosensors
row,Binder,binding
1,B2,binds
2,B3,binds
3,B4,binds
4,B5,binds
